According to patent publication US7897588B2, “Agents and methods for enhancing bone formation” (The Regents of the University of California, priority 2003, dated 2011):
Some of these results come from one statement about several compounds together.

System: marrow stromal cells
Assay: Osteogenic activity of marrow stromal cells (alkaline phosphatase, mineral formation), overall
Assay type: cell-based, mouse
Conditions: M2 cells, inhibitors at 1-10 μM
Description: Next, a combination of 22R and 20S oxysterols (RS, 2.5 μM each) were added in the presence or absence of SC as indicated. After 3 days, ALP activity was measured as described earlier. […] (B) M2 cells were treated as described in (A) and after 10 days matrix mineralization in cultures was quantified by a ^45Ca incorporation assay as described earlier. Results from a representative of three experiments are shown, reported as the mean±SD of quadruplicate determinations, normalized to protein concentration. (C) M2 cells were pretreated with 20 μM SC for 4 hours, followed by the addition of RS in the presence or absence of SC as described above. After 8 days, total RNA was isolated and analyzed for osteocalcin (Osc) and 18S rRNA expression by Northern blotting as previously described. Data from densitometric analysis of the Northern blot is shown in (D) as the average of duplicate samples, normalized to 18S rRNA. (E) M2 cells at confluence were pretreated for 2 hours with control vehicle (C), or PLA2 inhibitors ACA (25 μM) and AACOCF3 (AAC, 20 μM), in osteogenic medium. Next, a combination of 22R and 20S oxysterols (RS, 2.5 μM) was added in the presence or absence of the inhibitors as indicated. After 3 days, ALP activity was measured as previously described. […] After 10 days, matrix minerliazation in cultures was quantified using a ^45Ca incorporation assay as previously described. […]

| Structure (SMILES) | inhibition of the osteogenic effects of 22R+20S oxysterol combination |
| --- | --- |
| CC(C)Cc1ccc(C(C)C(=O)O)cc1 (centres unmarked) [Ibuprofen] | 25-30% |
| CC(C(=O)O)c1ccc(-c2ccccc2)c(F)c1 (centres unmarked) [Fluriprofin] | 25-30% |
